Measurements reported in article PMC11624269.
These are yes or no findings as the source states them, for the method shown. Binding seen in cells or lysates may run through a third protein. Some binding calls cover weakened binding; strength is not graded here. Each block holds one substance with its values, some of them ahead of it.

The chains behind the UniProt entries cited, without tags or fusion partners. Where a name states a change or a piece, a line headed by the entry shows the natural chain unless it says otherwise.
UniProt P41229: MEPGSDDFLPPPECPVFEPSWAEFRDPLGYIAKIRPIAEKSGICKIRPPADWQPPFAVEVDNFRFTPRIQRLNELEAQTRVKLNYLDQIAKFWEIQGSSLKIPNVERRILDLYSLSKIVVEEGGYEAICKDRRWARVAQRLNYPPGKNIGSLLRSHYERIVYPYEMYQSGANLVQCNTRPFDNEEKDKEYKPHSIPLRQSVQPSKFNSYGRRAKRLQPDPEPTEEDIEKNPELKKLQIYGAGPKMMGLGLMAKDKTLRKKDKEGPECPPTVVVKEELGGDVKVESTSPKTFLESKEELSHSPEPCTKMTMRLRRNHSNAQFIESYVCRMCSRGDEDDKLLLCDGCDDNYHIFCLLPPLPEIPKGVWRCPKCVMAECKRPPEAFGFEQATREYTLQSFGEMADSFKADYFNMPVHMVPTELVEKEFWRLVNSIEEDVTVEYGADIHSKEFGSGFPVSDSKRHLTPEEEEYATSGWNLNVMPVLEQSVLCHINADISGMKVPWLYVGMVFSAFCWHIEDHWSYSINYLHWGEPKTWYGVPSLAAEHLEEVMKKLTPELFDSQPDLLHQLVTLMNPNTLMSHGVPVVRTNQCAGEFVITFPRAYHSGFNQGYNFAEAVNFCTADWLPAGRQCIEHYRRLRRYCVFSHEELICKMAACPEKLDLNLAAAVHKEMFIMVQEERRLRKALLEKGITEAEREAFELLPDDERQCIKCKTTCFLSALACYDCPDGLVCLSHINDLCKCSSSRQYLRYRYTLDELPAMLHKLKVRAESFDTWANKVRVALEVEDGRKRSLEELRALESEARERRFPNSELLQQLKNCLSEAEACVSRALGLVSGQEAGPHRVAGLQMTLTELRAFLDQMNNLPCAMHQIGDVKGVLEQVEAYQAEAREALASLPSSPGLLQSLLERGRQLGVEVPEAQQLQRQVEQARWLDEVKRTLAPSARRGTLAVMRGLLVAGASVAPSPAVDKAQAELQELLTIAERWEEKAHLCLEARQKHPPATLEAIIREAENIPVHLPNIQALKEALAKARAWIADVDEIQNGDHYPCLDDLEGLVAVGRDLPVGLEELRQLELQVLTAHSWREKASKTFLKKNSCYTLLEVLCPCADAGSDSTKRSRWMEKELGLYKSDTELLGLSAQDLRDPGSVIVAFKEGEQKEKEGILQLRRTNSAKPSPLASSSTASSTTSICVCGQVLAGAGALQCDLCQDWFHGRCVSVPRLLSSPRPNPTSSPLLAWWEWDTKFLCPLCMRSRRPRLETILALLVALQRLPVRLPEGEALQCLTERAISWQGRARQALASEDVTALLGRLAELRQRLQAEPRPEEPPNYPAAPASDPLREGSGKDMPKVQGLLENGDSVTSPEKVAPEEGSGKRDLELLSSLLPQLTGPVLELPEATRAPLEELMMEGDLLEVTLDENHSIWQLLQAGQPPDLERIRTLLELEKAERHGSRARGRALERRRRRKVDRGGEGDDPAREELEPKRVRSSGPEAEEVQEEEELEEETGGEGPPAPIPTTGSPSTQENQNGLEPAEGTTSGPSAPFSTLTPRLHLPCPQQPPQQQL
UniProt P25490: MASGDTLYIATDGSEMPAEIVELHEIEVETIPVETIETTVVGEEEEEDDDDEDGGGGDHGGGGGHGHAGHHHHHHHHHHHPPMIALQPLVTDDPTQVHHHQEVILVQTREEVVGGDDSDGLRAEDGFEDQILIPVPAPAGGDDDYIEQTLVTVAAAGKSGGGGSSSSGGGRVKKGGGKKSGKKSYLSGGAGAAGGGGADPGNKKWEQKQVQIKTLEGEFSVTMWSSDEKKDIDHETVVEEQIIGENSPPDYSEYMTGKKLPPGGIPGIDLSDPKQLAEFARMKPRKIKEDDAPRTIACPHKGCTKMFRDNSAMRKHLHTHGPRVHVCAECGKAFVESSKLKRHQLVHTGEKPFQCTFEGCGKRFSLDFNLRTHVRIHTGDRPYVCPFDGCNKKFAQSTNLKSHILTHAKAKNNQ

How the values were obtained:
[1] = molecular target: KDM5C with HA or Flag tag, expressed in HEK293T cells (human) (UniProt P41229); assay: co-IP; HEK293T cells transfected with HA- or Flag-tagged constructs, 48 h; IP lysis buffer, sonicated; anti-HA or anti-Flag magnetic beads overnight at 4 °C; washed in TBS-T; western blot (mutual co-IP)
[2] = molecular target: KDM5C-H514A mutant with HA or Flag tag, expressed in HEK293T cells (human) (UniProt P41229); assay: as above
[3] = molecular target: KDM5C-Flag expressed in 769-P renal cancer cells (human) (UniProt P41229); assay: co-IP; semi-endogenous: KDM5C-Flag transfected into 769-P cells, endogenous YY1 detected by western blot
[4] = molecular target: KDM5C, endogenous in HEK293 cells (human (endogenous in HEK 293)) (UniProt P41229); assay: co-IP; endogenous proteins; lysate with KDM5C antibody or homologous IgG 6 h at 4 °C, Protein A/G agarose overnight; western blot

binding [1]: binds | binding [2]: binds
Substance: YY1 with HA or Flag tag, expressed in HEK293T cells (from UniProt P25490 1-414)

binding [3]: binds
Substance: YY1, endogenous in 769-P renal cancer cells (from UniProt P25490 1-414)

binding [4]: binds
Substance: Yin Yang 1 (YY1), endogenous in HEK293T cells (from UniProt P25490 1-414)
